The test system of one series is T. cruzi epimastigotes overexpressing TcSir2rp1 (OE) with the pTcINDEX. Format: cell-based, Trypanosoma cruzi.
Conditions: not given
The method, then:
For the generation of transgenic cell lines, 15 μg of the constructs were digested overnight (SpeI for the pTcINDEX construct; NotI for the knockout constructs), precipitated with sodium acetate / ethanol, and introduced into 1.5 x 10^7 epimastigote cells in the logarithmic phase of growth via transfection using an AMAXA Nucleofector II device (program V-33) with the Human T-cell nucleofector kit (Lonza). Parasites were suspended in fresh growth medium and incubated for 24-hrs to allow for the expression of drug selectable markers, prior to the addition of appropriate antibiotic (Blasticidin S (Thermo Fisher Scientific; 10 μg/mL); Hygromycin B (Formedium; 100 μg/mL); and Puromycin (Calbiochem; 5 μg/mL). Cells were then incubated for a further four- to six-weeks to allow for the selection of transgenic parasites and then genetically verified by PCR using ORF and drug selection primers.
The TcSir2rp1 open reading frame (TriTryp accession number TcCLB.508207.150) was amplified from CL-Brener genomic DNA using KOD polymerase (Novagen). The resulting PCR product encoding the full-length ORF was cloned directly into the T. cruzi expression vector, pTcINDEX [49], using NotI and BamHI restriction sites.
T. cruzi epimastigotes were seeded at 1.25 x 10^6 cells/mL in a 96-well plate in the presence of varying concentrations of test compounds. Following a 64-hour incubation, 15 μL of a resazurin solution (Sigma-Aldrich; 1.1 mg/mL in PBS). Following an additional 6-hr incubation, cell viability was determined by measuring the fluorescence of each culture with a BioTek FLX800 Fluorescence Microplate Reader (excitation and emission wavelengths of 540/535 nm and 590/610 nm, respectively) and associated Gen5 Reader Control 2.0 software. EC50 values were determined by nonlinear regression to a sigmoidal dose-response curve using GraFit software (Version 5.0, Erithacus Software). Each assay was performed in at least triplicate in parallel to the known trypanocidal agent nifurtimox.
Consider `O=C1c2cccc3cccc(c23)C(=O)N1CCCNCCCCCNCCCN1C(=O)c2cccc3cccc(c23)C1=O` [Compound 2], for which the “Fold-increase of EC50 (OE vs WT)” value worked out at 4.49. The same measure, in the same setting: the value for `O=C1c2cccc3cccc(c23)C(=O)N1CCCNCCCCCCNCCCN1C(=O)c2cccc3cccc(c23)C1=O` [Compound 3] was 3.04; that for `O=C1c2cccc3cccc(c23)C(=O)N1CCCNCCCCCCCCCNCCCN1C(=O)c2cccc3cccc(c23)C1=O` [Compound 6] was 4.81; that for `O=C1c2cccc3cccc(c23)C(=O)N1CCCNCCCCNCCCNCCCN1C(=O)c2cccc3cccc(c23)C1=O` [Compound 9, BNIP Spermidine] was 2.77. Still for that read-out and setting: the value for `CC1CS(=O)(=O)CCN1/N=C/c1ccc([N+](=O)[O-])o1` (stereo not drawn) [Nifurtimox, nifurtimox, reference compound] was 1.06.

Staying with this series, now noted: listed as nifurtimox.
As for `CC1CS(=O)(=O)CCN1/N=C/c1ccc([N+](=O)[O-])o1` (stereo not drawn) [Nifurtimox, nifurtimox, reference compound], the “Fold-increase of EC50 (OE vs WT)” value is on record as “did not alter significantly”.

For the origin of these results see article PMC5794198, “Inhibitors of Trypanosoma cruzi Sir2 related protein 1 as potential drugs against Chagas disease” (PLoS Neglected Tropical Diseases, 2018).
